PMC10374565
No constants are given. Whether binding was seen depends on the method and setting. Binding seen in cells or lysates may run through a third protein. Some results given as binding are weak or reduced against the parent protein; the word gives no strength. Sequences can lack the tags named with a protein.

Sequences of proteins named here, by UniProt entry; tags and fusion partners are left off.
UniProt P50990: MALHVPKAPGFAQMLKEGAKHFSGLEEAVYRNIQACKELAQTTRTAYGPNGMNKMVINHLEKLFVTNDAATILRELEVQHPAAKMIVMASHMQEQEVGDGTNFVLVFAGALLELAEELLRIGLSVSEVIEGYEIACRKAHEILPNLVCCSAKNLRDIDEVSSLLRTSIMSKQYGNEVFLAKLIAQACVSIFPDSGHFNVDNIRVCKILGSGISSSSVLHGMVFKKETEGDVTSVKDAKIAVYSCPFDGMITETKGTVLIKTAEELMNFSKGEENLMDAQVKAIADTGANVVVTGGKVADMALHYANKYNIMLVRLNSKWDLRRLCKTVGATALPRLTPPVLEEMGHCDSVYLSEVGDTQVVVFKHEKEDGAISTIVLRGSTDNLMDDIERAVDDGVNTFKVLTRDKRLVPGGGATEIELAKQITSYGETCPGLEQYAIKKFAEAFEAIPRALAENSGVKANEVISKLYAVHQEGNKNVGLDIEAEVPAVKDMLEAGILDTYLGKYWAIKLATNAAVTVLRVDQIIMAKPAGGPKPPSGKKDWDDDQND
UniProt P67809: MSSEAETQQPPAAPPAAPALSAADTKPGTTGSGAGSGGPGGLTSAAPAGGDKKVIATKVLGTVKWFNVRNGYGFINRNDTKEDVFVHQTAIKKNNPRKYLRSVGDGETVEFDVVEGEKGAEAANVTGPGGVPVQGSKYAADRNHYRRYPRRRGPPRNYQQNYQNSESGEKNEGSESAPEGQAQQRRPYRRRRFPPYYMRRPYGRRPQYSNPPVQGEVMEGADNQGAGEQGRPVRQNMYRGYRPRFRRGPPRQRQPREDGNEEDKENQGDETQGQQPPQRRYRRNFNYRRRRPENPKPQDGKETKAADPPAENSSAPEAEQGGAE

T1: Flag-tagged THOC3 (human) (UniProt Q96J01)
T1 sequence: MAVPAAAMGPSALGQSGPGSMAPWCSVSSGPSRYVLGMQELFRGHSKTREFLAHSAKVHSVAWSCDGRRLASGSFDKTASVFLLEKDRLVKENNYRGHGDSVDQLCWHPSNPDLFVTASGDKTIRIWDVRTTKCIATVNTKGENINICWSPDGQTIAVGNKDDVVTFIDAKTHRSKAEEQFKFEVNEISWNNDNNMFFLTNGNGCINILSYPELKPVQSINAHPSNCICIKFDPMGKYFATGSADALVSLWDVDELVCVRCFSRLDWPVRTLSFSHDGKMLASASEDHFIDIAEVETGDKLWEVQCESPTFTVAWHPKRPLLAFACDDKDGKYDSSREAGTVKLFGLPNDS


How the values were obtained:
[1] = molecular target: T1, Flag-tagged THOC3 (human); assay: condition: only cells incubated with 50 μg/ml cycloheximide for 5 h; co-IP; cells transfected with Flag-tagged THOC3 for 18 h, then incubated with 50 μg/ml cycloheximide for 5 h; immunoprecipitates blotted with anti-CCT8/CCT6A antibodies
[2] = molecular target: T1, Flag-tagged THOC3 (human); assay: co-IP; lysates of H1703 cells transfected with Flag-tagged THOC3; IP with anti-CCT8, anti-CCT6A, anti-YBX1, anti-Flag or IgG antibody (Protein A/G agarose or Flag magnetic beads), Western blot; also lysates prepared in the presence or absence of ATP and MgCl2

| binding [1] | binding [2] | Molecule |
| --- | --- | --- |
| no binding | binds | CCT8 (from UniProt P50990 1-548) |
|  | binds | YBX1 (from UniProt P67809 1-324) |
|  | binds | CCT2 (protein, UniProt P78371 1-535) MASLSLAPVNIFKAGADEERAETARLTSFIGAIAIGDLVKSTLGPKGMDKILLSSGRDASLMVTNDGATILKNIGVDNPAAKVLVDMSRVQDDEVGDGTTSVTVLAAELLREAESLIAKKIHPQTIIAGWREATKAAREALLSSAVDHGSDEVKFRQDLMNIAGTTLSSKLLTHHKDHFTKLAVEAVLRLKGSGNLEAIHIIKKLGGSLADSYLDEGFLLDKKIGVNQPKRIENAKILIANTGMDTDKIKIFGSRVRVDSTAKVAEIEHAEKEKMKEKVERILKHGINCFINRQLIYNYPEQLFGAAGVMAIEHADFAGVERLALVTGGEIASTFDHPELVKLGSCKLIEEVMIGEDKLIHFSGVALGEACTIVLRGATQQILDEAERSLHDALCVLAQTVKDSRTVYGGGCSEMLMAHAVTQLANRTPGKEAVAMESYAKALRMLPTIIADNAGYDSADLVAQLRAAHSEGNTTAGLDMREGTIGDMAILGITESFQVKRQVLLSAAEAAEVILRVDNIIKAAPRKRVPDHHPC |
